Values of other authors, collected in US11246893B2, “Bacteriocin production, compositions and methods of use” (ISOThrive Inc., priority 2016, dated 2022).
For at least one compound, name, drawing or mass did not settle the structure.

Tested on: Caenorhabditis elegans
Details: incubation with rifampicin; cited from earlier work

For `CO[C@H]1/C=C/O[C@@]2(C)Oc3c(C)c(O)c4c(O)c(c(/C=N/N5CCN(C)CC5)c(O)c4c3C2=O)NC(=O)/C(C)=C\C=C\[C@H](C)[C@H](O)[C@@H](C)[C@@H](O)[C@@H](C)[C@H](OC(C)=O)[C@@H]1C` [rifampicin], the increase of lifespan is given as “up to 60%”.
